The chains are these.
B1: AtPOP5 (Arabidopsis homologue of RNases P/MRP subunit POP5) (protein, UniProt Q6AWV1 1-151)
chain: MVGFKNRYMLMEVFLDPDKDLLGEGTPIILTQFNLSKAIKDSILVNFGECGLGSSLGSFQVKYVNPITKLCIVRSSREEHRQVWLAITLVKSIGNCPVILNLLDISGCIRACRDTALKCDKEKFEQCSKSLSEEEIRQMNTSLEKIKLLEN
B2: AtPOP1 (Arabidopsis homologue of RNases P/MRP subunit POP1) (protein, UniProt F4IL30 1-826)
chain: MATTANGNSKKRDGGLSSLAPRKINVQKFSEARAPELESLHSIVSERLNKDFRSKRNKRRRTNSYNNQPAKKRNIKRQKSQSLIGQVSGGDHEVKITRRVKRRMELKGNPETGFCTSGDGTKRLRTHVWHAKRFTMTKLWGFHLPLGLHGRGRGSRDVLKQSRQGVLVHDASYHIAVQLEGPEGSLLSILNMLLEPSPSSHSKEVFDSILTGGSYENAMLYHVEPPVSQAIAPVTYMWRPSKIPKRRNEEKGGDGIGTDLPVSDKDHEDFRKLWVWIHASSFSEGYAILKVACQKQMNETGVSVDCFSLEGQLAKLEIFGSKASHLLQKTLHPATSTSENPSILRKCSMEKAEVKNVADLYTEENVSSGAILAQFVIDPRLILTSPHDDRTVSVETIKTEPTESVETTTNTEAETFPEVFNCLWDANSELTPPEEENMLCWEKHQSRMDSLCLDDPAAEVPKVSSRPRSSRSCPLLLLKHKKLGNAPTGWSLILPLSWIKVFWNAFVSKGAHAIGQREKRWVSCDDGLPFFPSDFPDCKAYSSFTLSEAADLEEKAQRRPPAIRPFRIPIPPPWNSIHVTRSIGEGSNQKFSSNGRSVVEISSYGGNLFDGIVARTSDSLTTFLQTFTSDNMLLFPHNTSKPSTDLMMTLQEDDKKVRAQIHQSSNKLCLVRVLLHAFKEGSFEEGAVVCAPTLADISLLKSSCSEGEDGRVTIPQSSVSSYFQEQPCGTWELNVPEDTLTEQSHRWPIGFVTTGFVRGSKKPAAEAFCDAVLLGRLRDEQWRDKDVRRRKKQIYVLVRNLRSSAFRLALATIVLEQQDYCDVHCF
B3: AtPOP4 (Arabidopsis homologue of RNases P/MRP subunit POP4) (protein, UniProt Q9ZW76 1-296)
chain: MGTETVVHDQARWAMAAMERRLAVAKAQLLQQQQQKNEKDKKGTSDVDVSMKESHQADSLPTPSKTSIKKVDPKDDDSVAYTKLSHPVDENLLATNVKFSSAKGTIVDKVLHNLLRSGDSAQKYLQGTKSVKLDNYILLDNFVQSRSSASGSKKASQKDSKRSKSRMSMKRLKKSGALHIPKDLQKFDLFKPMHGMWESYMMKLIKVTGKIQLSLTLLSADLHGAFMFVAECKIASFTGVQGIMVRETSETFGIITRDDKFRVVPKKLSVFIIQLDCWKITLHGDKFISRDNIVQR

These are yes or no findings as the source states them, for the method shown. Some entries that bind do so weakly or less than the wild type.

The target in this experiment is T1, GAMETOPHYTE … 1 (GAF1/AtRPP30) (Arabidopsis thaliana) (UniProt F4JXF1).
T1 sequence: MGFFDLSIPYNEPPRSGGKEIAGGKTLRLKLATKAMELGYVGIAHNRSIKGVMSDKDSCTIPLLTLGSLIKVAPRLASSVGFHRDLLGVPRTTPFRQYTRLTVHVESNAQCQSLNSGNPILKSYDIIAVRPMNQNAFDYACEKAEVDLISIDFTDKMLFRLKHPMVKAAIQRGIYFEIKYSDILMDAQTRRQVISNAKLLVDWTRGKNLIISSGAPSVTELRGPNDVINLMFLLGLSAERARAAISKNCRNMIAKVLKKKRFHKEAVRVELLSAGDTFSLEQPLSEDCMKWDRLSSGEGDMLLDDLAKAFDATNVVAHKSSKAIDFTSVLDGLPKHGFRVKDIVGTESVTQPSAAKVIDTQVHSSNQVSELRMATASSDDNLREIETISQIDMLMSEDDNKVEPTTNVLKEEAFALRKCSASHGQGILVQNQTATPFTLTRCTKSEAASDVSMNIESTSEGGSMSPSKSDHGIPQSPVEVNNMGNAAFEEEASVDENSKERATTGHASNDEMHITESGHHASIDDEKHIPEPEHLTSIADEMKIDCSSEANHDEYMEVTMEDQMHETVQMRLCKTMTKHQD
Briefly: two-hybrid; pGADT7 and pGBKT7 constructs co-transformed in pairs into yeast AH109; cells adjusted to OD600=0.3, growth on SD/-Trp-Leu-His-Ade plates for 5 or 12 days at 28°C (SD/-Trp-Leu for 3 days as control).
On to B1, for which the binding result is given as “binds”.

B2: the binding result was “no binding”.

In the case of B3, the binding entry is “no binding”.
